# PubChem BioAssay AID1347075 (National Center for Advancing Translational Sciences (NCATS), 2019)
# Among all 400,000 compounds or so, about 5,500 (1.4%) were called active. This list was built around the results that the source calls inconclusive (neither active nor inactive); the mix of calls is not that of the screen. The call rests on the fitted dose curve; in most records, active means well fitted cell-killing curve with a large enough effect; inconclusive means small, poorly fitted or top-dose-only effect, or effect the other way; inactive means flat fitted curve, though single readings scatter. Where the call is inconclusive, the potency comes from a doubtful curve fit.
# Test: qHTS assay for MDR1-selective chemotherapeutics: Primary screen using the parental adenocarcinoma cell KB-3-1; further: nearly all actives have a fitted effect of over 60% in size
# Settings: KB-3-1 viability, CellTiter-Glo ATP luminescence, 72 h; activity change, negative = cytotoxic: at 46.1 µM (top of the series)
# In short: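 Luminescent ATP read-out (CellTiter-Glo) measures survival of drug-naive KB-3-1 cells after 72 h compound exposure at 37 °C. Titration series was screened from lowest to highest concentration, with DMSO vehicle plates as background controls.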
# On the % scale 0 is the no-effect control and ±100 the full control effect; potency means the concentration at half of the fitted maximal effect.
Structure (SMILES),Potency,"activity change, negative = cytotoxic"
Cc1ccc(C)c(CN2CCC(CNC(=O)Nc3cccc(Cl)c3C)CC2)c1,"inconclusive: 18.4 µM [cytotoxic, single point]",–
Cc1nc2ncnn2c(N2CCCC(C(=O)Nc3ccccc3Br)C2)c1C (stereo not given),–,inactive: -29.7%
CCN1CCCC1CNC(=O)CSc1cc(=O)n(CC)c2ccccc12 (stereo not given),"inconclusive: 11.2 µM [cytotoxic, single point]",–
Cc1ccc(C)c(N2C(=O)N(Cc3ccccc3C)c3ccccc3S2(=O)=O)c1,"inconclusive: 10.3 µM [cytotoxic, partial curve, poor fit]",–
CC1=CC(C)(C)N(C(=O)c2ccc(F)cc2)c2cc3c(cc21)OCO3,active: 20.6 µM,–
CCn1cc(C2=NC(c3ccccc3)CO2)c2ccccc21 (stereo not given),active: 8.2 µM,–
CCOc1cccc2cc(-c3nnc(NCc4ccc5c(c4)OCO5)s3)c(=O)oc12,"inconclusive: 16.4 µM [cytotoxic, single point]",–
CC1=C(C(=O)OCC2CCCO2)C(c2ccccc2)C2=C(CCCC2=O)N1 (stereo not given),–,inactive: 7.45%
CCC(=O)N1c2ccc(S(=O)(=O)NCc3ccccc3)cc2CC1C (stereo not given),"inconclusive: 23.1 µM [cytotoxic, single point]",–
COc1cc2c(cc1OC)C(C)N(Cc1ccc3c(c1)OCO3)CC2 (stereo not given),"inconclusive: 16.4 µM [cytotoxic, partial curve, poor fit]",–
COC(=O)C1=C(C(=O)OC)[C@]2([C@@H]3CC=CCN[C@@H](Cc4ccccc4)C(=O)N3Cc3ccccc3)C=C[C@H]1O2,–,inactive: -5.65%
Cc1ccccc1NC(=O)CSC1=C(C#N)C(c2ccsc2)CC(=O)N1 (stereo not given),"inconclusive: 18.4 µM [cytotoxic, partial curve, poor fit]",–
COc1ccc(-c2nc3ccc(C)cn3c2Cc2ccsc2)cc1OC,–,inactive: -4.67%
COc1ccc2cc(Br)ccc2c1CC(=O)NC(C)C,–,inactive: -9.65%
N#CC1=C(N)Oc2n[nH]c(-c3cccs3)c2C1c1ccoc1 (stereo not given),"inconclusive: 32.6 µM [cytotoxic, partial curve, poor fit]",–
Cc1ccc(NC(=O)CSc2nnc(C3CC3)n2N)cc1S(=O)(=O)N1CCOCC1,–,inactive: 9.64%
CCN(CC)CCNC(=S)Nc1ccc2nc(N3CCN(C)CC3)cc(C)c2c1,–,inactive: -1.93%
C/C(=N\NC(=O)c1ccn(C)n1)c1cccc(NC(=O)c2ccc(C)s2)c1,"inconclusive: 1.84 µM [rising, partial curve, poor fit]",–
Cc1cc2c(cc1S(=O)(=O)CCC(=O)NC1CCCCC1C)OCC(=O)N2 (stereo not given),–,inactive: 4.99%
CCN(CC)c1ccc(C(=C2C=CC(=[N+](CC)CC)C=C2)c2ccccc2)cc1,active: 0.0259 µM,–
CCN(CC)CCN(Cc1cc2cc3c(cc2[nH]c1=O)OCO3)C(=S)NCCCOC,–,inactive: 2.25%
CCN(CC)S(=O)(=O)c1ccc(/C=C/C(=O)Nc2ccc(Br)cc2F)cc1,"inconclusive: 4.11 µM [cytotoxic, full curve, poor fit]",–
COc1cccc(OC)c1C(=O)N1CCN(Cc2ccccc2C(F)(F)F)CC1,–,inactive: 7.22%

# Part of the list above in order of count of non-hydrogen atoms, high to low:
Structure (SMILES),Potency,"activity change, negative = cytotoxic"
CCOc1cccc2cc(-c3nnc(NCc4ccc5c(c4)OCO5)s3)c(=O)oc12,"inconclusive: 16.4 µM [cytotoxic, single point]",–
CCN1CCCC1CNC(=O)CSc1cc(=O)n(CC)c2ccccc12 (stereo not given),"inconclusive: 11.2 µM [cytotoxic, single point]",–
COc1ccc2cc(Br)ccc2c1CC(=O)NC(C)C,–,inactive: -9.65%

# Continued.

Structure (SMILES),Potency,"activity change, negative = cytotoxic"
COc1cccc(C(=O)Nc2ccc(Oc3cccc(C(F)(F)F)c3)nc2)c1,"inconclusive: 23.1 µM [cytotoxic, single point]",–
CCC(C)c1ccccc1NC(=O)c1cccnc1 (stereo not given),"inconclusive: 29.1 µM [cytotoxic, single point]",–
COc1ccc(CN2C(=O)CN=C2Nc2cc(C)ccc2C)cc1,"inconclusive: 35.5 µM [cytotoxic, single point]",–
c1ccc(SCCOCCN2CCOCC2)cc1,"inconclusive: 0.206 µM [rising, full curve, poor fit]",–
COc1ccc(C2=C(C)C(N3CCC(C(=O)NCc4ccc(C)o4)CC3)=NS2(=O)=O)cc1,–,inactive: -17.2%
NS(=O)(=O)c1ccc(CCNC(=O)CSc2ccsc2[N+](=O)[O-])cc1,–,inactive: -5.15%
COc1ccc(Nc2nc3ccccc3nc2NS(=O)(=O)c2ccc(C)cc2)c(OC)c1,–,inactive: 10.6%
CCC(O)c1nc2ccccc2n1CCc1ccccc1 (stereo not given),–,inactive: -0.747%
CN1CCN(C(=O)CCN2C(=O)/C(=C/c3cccc(Br)c3)SC2=S)CC1,"inconclusive: 29.1 µM [cytotoxic, single point]",–
CCN(CC)c1cc(C)c2cc(NC(=O)c3cccc(OC)c3OC)ccc2n1,"inconclusive: 16.4 µM [cytotoxic, single point]",–
Cc1ccc(Cn2nc(C)c(NC(=O)CSc3nc4c(c(C(F)(F)F)n3)CCc3ccccc3-4)c2C)cc1,"inconclusive: 29.1 µM [cytotoxic, single point]",–
Cn1c(CNc2ccc(Br)cc2)nc2ccccc21,"inconclusive: 20.6 µM [cytotoxic, single point]",–
CC1CCc2c(nc3ncnn3c2N2CCN(c3ccccc3)CC2)C1 (stereo not given),"inconclusive: 29.1 µM [cytotoxic, single point]",–
O/N=C1/CCc2nonc2/C1=N/O,"inconclusive: 23.1 µM [cytotoxic, single point]",–
CCCCNC(=S)N/N=C/c1ccc(C#N)cc1,–,inactive: 2.22%
Cc1cccc(Cn2cc(/C=C/[N+](=O)[O-])c3ccccc32)c1,"inconclusive: 18.4 µM [cytotoxic, partial curve, poor fit]",–
COC(=O)Nc1ccc2c(c1)N(C(=O)CCN1CCN3CCCC3C1)c1ccccc1S2 (stereo not given),–,inactive: 3.75%
CC(c1nnc(SCC(=O)Nc2cc([N+](=O)[O-])ccc2F)n1Cc1ccccc1)N(C)C (stereo not given),"inconclusive: 29.1 µM [rising, single point]",–
O=C(N[C@@H]1C/C=C\C[C@H](CC(=O)N(CCO)Cc2ccccc2)C(=O)N[C@@H](Cc2ccccc2)COC1=O)OCC1c2ccccc2-c2ccccc21,"inconclusive: 29.1 µM [cytotoxic, single point]",–
CCCC(=O)Nc1ccccc1NC(=O)c1ccc(OC)cc1,–,inactive: -16.2%
O=C(CCCN1C(=O)/C(=C/c2cccc(Br)c2)SC1=S)Nc1cccnc1,"inconclusive: 18.4 µM [cytotoxic, single point]",–
C=CCc1ccccc1OCCSc1nc(-c2cccs2)nc2cc(=O)[nH]n12,"inconclusive: 7.31 µM [cytotoxic, partial curve, poor fit]",–
